According to paper PMC4918949:
These are yes or no findings as the source states them, for the method shown. In cells and extracts the contact can be indirect. Some entries that bind do so weakly or less than the wild type.

Amino acid sequences for entries named in this document (tags omitted).
UniProt Q05397: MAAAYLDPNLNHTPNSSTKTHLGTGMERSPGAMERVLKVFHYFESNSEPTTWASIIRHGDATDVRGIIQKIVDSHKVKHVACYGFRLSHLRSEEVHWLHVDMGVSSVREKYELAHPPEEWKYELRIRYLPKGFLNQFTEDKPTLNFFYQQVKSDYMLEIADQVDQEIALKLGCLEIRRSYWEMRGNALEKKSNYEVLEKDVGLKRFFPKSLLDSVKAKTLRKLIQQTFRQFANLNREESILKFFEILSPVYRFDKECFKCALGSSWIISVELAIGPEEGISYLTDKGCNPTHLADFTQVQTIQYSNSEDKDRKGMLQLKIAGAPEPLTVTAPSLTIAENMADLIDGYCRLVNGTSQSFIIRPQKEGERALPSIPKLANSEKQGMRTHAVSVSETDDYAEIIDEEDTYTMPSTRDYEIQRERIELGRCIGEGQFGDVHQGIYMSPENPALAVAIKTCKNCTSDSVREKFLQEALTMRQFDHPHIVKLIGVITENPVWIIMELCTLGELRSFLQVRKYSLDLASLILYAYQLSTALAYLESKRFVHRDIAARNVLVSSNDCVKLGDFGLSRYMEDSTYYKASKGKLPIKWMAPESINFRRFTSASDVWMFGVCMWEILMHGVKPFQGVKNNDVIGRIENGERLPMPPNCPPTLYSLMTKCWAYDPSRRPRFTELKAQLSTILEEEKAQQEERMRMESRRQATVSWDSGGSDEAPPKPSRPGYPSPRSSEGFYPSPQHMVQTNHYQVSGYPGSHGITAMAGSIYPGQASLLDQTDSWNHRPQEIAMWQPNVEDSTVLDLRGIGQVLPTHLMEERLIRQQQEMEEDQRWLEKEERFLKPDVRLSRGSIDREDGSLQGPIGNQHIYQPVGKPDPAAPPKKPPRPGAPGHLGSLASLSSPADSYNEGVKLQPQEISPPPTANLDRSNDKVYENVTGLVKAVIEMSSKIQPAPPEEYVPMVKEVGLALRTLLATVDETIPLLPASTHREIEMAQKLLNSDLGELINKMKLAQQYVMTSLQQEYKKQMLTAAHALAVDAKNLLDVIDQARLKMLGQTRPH
UniProt P17931: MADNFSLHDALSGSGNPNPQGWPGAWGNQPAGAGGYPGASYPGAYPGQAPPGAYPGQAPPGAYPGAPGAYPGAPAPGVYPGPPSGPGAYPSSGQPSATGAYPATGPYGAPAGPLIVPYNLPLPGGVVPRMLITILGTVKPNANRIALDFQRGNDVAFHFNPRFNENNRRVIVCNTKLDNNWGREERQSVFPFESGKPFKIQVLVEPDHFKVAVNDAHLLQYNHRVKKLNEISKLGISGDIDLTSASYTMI

Molecular target: MUC16 (human (endogenous in colo-357)) (UniProt Q8WXI7)
Test: co-IP; endogenous proteins; 500 ug colo-357 lysate with 3 ug antibody or IgG overnight at 4°C, Protein A/G-Sepharose beads 2 h; IP buffer 50 mM Tris-HCl pH 7.4, 150 mM NaCl, 5 mM EDTA, 0.5% NP-40; immunoblot

| binding | Substance |
| --- | --- |
| binds | FAK (from UniProt Q05397 1-1052) |
| binds | galectin-3 (from UniProt P17931 1-250) |
